Results as given in the supplement of paper PMC10849652.
This is one part of the list.

The chains behind the UniProt entries cited, without tags or fusion partners. Where a name states a change or a piece, a line headed by the entry shows the natural chain unless it says otherwise.
UniProt P62258: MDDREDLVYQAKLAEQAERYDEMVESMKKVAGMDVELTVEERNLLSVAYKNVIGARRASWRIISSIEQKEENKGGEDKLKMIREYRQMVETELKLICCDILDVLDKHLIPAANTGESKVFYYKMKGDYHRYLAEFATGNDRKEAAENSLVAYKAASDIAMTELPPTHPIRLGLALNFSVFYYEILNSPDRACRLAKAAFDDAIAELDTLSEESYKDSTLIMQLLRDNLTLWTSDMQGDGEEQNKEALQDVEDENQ
UniProt Q8IY57: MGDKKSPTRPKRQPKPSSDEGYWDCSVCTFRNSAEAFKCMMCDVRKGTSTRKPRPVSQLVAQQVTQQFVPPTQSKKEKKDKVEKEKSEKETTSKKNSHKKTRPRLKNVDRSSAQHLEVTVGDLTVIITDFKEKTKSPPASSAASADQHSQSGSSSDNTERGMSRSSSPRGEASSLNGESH
UniProt Q13426: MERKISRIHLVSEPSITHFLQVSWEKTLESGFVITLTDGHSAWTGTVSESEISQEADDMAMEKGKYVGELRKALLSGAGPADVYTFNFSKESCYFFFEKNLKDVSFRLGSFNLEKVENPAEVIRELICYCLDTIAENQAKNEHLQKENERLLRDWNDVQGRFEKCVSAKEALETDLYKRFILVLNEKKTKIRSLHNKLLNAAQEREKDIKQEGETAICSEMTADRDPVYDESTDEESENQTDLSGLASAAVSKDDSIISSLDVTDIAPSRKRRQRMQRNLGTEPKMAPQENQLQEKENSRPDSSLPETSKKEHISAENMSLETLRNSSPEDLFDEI
UniProt Q5BJH7: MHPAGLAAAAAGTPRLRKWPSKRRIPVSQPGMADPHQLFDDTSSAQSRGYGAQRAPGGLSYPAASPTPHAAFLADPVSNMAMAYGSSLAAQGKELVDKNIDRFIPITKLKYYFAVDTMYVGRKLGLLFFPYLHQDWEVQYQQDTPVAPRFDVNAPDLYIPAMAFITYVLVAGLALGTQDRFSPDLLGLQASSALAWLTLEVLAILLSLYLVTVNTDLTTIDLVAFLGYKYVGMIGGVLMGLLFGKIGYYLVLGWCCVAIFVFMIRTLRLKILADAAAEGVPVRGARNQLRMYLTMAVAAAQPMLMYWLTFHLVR
UniProt Q96TA2: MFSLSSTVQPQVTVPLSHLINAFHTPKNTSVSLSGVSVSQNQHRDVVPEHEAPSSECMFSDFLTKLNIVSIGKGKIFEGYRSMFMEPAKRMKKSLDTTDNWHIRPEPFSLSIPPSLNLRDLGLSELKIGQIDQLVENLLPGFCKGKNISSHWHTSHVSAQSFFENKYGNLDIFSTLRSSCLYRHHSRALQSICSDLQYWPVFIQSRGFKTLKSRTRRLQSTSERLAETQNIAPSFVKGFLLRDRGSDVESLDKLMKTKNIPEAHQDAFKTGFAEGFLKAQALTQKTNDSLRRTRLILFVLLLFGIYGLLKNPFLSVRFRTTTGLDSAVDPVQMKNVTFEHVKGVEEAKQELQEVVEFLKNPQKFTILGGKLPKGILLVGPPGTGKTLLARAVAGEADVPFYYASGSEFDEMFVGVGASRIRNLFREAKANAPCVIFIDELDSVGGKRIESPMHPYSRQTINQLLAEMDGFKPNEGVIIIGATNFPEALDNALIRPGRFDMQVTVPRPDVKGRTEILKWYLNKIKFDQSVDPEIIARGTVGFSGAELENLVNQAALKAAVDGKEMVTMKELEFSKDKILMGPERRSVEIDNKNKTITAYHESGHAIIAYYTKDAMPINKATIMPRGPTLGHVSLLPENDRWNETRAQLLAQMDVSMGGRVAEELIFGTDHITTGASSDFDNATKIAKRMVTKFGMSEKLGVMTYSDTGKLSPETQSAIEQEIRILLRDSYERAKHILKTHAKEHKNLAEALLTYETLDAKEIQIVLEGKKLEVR
UniProt Q9NUE0: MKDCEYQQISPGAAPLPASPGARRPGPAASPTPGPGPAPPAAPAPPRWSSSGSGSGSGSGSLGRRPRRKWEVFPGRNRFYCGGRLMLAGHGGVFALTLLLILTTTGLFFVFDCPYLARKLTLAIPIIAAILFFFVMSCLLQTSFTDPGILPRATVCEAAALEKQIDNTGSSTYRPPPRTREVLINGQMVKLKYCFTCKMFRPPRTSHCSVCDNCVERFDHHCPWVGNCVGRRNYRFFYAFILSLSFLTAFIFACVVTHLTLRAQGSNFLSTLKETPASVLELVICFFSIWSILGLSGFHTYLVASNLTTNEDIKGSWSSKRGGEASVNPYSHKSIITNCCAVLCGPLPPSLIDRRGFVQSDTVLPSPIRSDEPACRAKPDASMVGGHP
UniProt A8MPS7: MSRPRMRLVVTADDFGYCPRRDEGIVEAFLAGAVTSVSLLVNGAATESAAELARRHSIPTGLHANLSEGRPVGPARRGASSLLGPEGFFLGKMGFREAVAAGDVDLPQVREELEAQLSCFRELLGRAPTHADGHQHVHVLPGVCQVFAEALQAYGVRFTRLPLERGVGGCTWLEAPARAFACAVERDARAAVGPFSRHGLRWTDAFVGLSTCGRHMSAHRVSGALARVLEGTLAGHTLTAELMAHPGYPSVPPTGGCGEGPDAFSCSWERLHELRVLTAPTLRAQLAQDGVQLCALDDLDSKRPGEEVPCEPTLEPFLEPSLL
UniProt Q96K21: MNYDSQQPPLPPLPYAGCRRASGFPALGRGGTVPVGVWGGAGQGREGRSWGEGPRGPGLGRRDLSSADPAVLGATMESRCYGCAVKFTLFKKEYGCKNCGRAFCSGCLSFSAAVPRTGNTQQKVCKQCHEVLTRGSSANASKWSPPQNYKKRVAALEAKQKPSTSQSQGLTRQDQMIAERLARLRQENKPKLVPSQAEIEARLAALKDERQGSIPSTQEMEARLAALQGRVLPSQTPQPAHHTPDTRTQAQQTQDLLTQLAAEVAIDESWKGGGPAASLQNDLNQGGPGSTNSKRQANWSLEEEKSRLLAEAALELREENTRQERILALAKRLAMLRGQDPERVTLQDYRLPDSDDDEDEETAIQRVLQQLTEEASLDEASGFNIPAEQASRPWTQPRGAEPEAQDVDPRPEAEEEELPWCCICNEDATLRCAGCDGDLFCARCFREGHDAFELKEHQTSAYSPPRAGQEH
UniProt Q86U90: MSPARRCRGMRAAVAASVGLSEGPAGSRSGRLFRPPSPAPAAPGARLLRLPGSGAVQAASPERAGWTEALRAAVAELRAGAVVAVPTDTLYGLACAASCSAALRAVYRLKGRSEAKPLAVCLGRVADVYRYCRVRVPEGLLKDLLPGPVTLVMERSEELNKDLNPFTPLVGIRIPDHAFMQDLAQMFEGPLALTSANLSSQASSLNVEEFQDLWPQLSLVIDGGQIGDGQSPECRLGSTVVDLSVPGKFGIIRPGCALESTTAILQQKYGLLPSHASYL
UniProt Q9Y2Z4: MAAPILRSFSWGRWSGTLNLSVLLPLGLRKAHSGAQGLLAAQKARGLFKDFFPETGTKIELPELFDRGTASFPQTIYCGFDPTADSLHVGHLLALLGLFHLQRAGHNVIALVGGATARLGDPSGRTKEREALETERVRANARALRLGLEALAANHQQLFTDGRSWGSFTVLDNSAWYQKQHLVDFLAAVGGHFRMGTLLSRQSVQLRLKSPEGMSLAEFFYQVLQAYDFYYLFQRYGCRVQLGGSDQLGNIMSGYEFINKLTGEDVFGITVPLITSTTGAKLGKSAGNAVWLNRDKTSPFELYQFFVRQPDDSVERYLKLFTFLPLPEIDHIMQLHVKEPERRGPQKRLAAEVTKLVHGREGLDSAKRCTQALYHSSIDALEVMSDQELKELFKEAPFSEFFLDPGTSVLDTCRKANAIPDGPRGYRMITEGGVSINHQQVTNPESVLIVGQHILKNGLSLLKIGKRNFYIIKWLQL
UniProt O75844: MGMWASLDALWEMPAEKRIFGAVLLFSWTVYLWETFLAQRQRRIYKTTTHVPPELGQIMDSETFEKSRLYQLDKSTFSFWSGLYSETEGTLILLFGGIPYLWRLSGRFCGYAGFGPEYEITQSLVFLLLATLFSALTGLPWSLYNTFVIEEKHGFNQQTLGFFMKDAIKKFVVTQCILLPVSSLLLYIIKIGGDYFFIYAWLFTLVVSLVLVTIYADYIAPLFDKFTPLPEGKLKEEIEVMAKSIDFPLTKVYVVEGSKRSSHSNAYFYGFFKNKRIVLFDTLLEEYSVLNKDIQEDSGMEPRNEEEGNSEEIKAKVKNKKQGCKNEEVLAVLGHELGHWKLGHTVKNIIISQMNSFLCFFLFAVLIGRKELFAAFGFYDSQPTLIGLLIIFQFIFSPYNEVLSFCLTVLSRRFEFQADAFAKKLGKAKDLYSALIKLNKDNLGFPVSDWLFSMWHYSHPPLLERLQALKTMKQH
UniProt Q9C0E2: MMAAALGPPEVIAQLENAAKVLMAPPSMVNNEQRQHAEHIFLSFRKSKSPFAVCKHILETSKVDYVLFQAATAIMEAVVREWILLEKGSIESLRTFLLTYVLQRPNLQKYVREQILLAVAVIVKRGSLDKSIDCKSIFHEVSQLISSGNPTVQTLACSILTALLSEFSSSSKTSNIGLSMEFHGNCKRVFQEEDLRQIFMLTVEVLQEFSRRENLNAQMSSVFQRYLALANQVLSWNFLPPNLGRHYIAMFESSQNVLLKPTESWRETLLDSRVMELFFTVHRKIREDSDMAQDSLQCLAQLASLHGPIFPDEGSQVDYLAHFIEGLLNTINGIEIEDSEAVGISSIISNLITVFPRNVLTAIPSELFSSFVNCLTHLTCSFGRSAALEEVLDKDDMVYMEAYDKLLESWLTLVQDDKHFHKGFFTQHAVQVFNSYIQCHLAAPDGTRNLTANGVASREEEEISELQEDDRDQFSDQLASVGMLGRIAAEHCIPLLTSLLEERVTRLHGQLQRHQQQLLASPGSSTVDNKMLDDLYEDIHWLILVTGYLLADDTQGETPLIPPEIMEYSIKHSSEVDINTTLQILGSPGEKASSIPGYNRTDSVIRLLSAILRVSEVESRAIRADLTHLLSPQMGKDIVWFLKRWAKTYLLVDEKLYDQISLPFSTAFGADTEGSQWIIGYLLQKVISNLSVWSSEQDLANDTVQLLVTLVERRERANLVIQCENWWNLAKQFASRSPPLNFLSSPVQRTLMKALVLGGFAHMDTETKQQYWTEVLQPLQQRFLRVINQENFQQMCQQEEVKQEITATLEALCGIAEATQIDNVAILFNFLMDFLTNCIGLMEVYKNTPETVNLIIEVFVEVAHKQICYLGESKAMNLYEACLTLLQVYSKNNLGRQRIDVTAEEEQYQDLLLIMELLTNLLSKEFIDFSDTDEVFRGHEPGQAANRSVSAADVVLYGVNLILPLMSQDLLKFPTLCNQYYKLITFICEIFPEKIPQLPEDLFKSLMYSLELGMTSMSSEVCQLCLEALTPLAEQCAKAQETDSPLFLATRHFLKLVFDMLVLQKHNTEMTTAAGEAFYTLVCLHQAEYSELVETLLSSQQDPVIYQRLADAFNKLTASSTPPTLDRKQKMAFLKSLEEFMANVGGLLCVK
UniProt Q6NZY4: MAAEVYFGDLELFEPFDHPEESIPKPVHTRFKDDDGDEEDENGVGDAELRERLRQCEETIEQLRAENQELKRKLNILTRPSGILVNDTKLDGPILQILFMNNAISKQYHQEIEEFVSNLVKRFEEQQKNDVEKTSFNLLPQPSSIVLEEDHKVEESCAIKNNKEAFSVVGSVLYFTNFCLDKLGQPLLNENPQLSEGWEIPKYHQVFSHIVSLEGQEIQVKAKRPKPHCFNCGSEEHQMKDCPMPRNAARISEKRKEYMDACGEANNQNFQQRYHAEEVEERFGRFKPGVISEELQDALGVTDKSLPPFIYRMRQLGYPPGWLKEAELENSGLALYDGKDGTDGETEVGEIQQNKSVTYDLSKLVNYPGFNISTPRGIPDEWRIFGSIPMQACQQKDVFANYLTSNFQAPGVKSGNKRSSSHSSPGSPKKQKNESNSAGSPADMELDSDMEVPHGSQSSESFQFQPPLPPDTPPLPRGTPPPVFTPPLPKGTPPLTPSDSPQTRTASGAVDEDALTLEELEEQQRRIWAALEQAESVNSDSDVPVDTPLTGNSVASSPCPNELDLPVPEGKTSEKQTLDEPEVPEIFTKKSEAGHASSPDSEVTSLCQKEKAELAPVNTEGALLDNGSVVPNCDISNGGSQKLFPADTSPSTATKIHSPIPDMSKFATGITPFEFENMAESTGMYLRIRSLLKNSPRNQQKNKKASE
UniProt O95619, whole entry, looked up: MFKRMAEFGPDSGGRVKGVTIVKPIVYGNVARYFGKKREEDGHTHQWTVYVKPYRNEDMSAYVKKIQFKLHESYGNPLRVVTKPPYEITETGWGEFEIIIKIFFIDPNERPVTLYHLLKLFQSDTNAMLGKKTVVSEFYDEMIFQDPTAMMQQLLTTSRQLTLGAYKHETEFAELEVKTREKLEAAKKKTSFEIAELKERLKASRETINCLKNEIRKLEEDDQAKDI

How the values were obtained:
Test in all cases: log2 fold change, soluble protein after heating vs DMSO (PISA); higher = thermal stabilisation; K562 cells, 10 uM, 30 min; active = over 0.2 and 3.5 SD of the protein, either way, in both replicates (recomputed)
[1] = compound: COC1=CC=C(C=C1)CN2C=CC3=C2C=C(C=C3)C(=O)NO
Procedure, shortened: (§1)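 For each measurement, 10 μM compound was applied for 30 min to K562 cells at 2×10^6 cells/mL. Aliquots were heated for 3 min across 48°C-58°C, pooled, and extracted in PBS with 0.5% NP-40 at 4°C; the supernatant after 21,000xg for 90 min was soluble protein. This was quantified by TMTpro 16plex LC-MS/MS with channel sums equalised, and thermal stability was reported relative to control samples from duplicates, on a log2 fold-change scale.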

[2] = compound: CON(C)C(=O)N1N=C(c2cc(F)ccc2F)S[C@@]1(CCCN)c1ccccc1 [filanesib]
Procedure, shortened: as §1

[3] = compound: CO[C@H]1C[C@@H]2CC[C@@H](C)[C@@](O)(O2)C(=O)C(=O)N2CCCC[C@H]2C(=O)O[C@H]([C@H](C)C[C@@H]2CC[C@H](n3cnnn3)[C@H](OC)C2)CC(=O)[C@H](C)/C=C(\C)[C@@H](O)[C@@H](OC)C(=O)[C@H](C)C[C@H](C)/C=C/C=C/C=C/1C [zotarolimus]
Procedure, shortened: as §1

[4] = compound: COc1cc(C(=O)O)ccc1NC(=O)[C@@H]1N[C@@H](CC(C)(C)C)[C@](C#N)(c2ccc(Cl)cc2F)[C@H]1c1cccc(Cl)c1F [idasanutlin]
Procedure, shortened: as §1

[5] = compound: COc1cc(Nc2ncc3c(n2)-c2ccc(Cl)cc2C(c2c(F)cccc2OC)=NC3)ccc1C(=O)O [alisertib]
Procedure, shortened: as §1

[6] = compound: COc1cc2nc(-c3cc(F)ccc3O)nc(N[C@@H]3CNC[C@H]3C(C)(C)O)c2cc1OC
Procedure, shortened: as §1

[7] = compound: COc1cc2ncnc(Nc3ccc(F)c(Cl)c3)c2cc1OCCCN1CCOCC1 [gefitinib]
Procedure, shortened: as §1

[8] = compound: COc1cccc2cc(-c3nc([C@H]4CC[C@H](C(=O)O)CC4)n4ncnc(N)c34)[nH]c12
Procedure, shortened: as §1

[9] = compound: CS(=O)(=O)CCNCc1ccc(-c2ccc3ncnc(Nc4ccc(OCc5cccc(F)c5)c(Cl)c4)c3c2)o1 [lapatinib]
Procedure, shortened: as §1

[10] = compound: CS(=O)(=O)N1CCN(Cc2cc3nc(-c4cccc5[nH]ncc45)nc(N4CCOCC4)c3s2)CC1 [pictilisib]
Procedure, shortened: as §1

[11] = compound: CS(=O)(=O)c1ccc(-c2cnc(N)c(C(=O)Nc3ccccc3)n2)cc1
Procedure, shortened: as §1

[12] = compound: C[C@@H](Oc1cc(-c2cnn(C3CCNCC3)c2)cnc1N)c1c(Cl)ccc(F)c1Cl [crizotinib]
Procedure, shortened: as §1

[13] = compound: C[C@@H]1COCCN1C2=NC(=NC(=C2)C3(CC3)S(=O)(=O)C)C4=C5C=CNC5=CC=C4
Procedure, shortened: as §1

[14] = compound: C[C@H](C1=CC=C(C=C1)C(=O)NC2=C3C=CNC3=NC=C2)N
Procedure, shortened: as §1

[15] = compound: C[C@H](Nc1ncnc2nc[nH]c12)c1cc2cccc(Cl)c2c(=O)n1-c1ccccc1 [duvelisib]
Procedure, shortened: as §1

[16] = compound: Cc1cc(Nc2cc(CN3CCOCC3)c3nc(C)c(Cc4ccc(Cl)cc4F)n3n2)n[nH]1 [gandotinib]
Procedure, shortened: as §1

[17] = compound: Cc1cc(Nc2cc(N3CCN(C)CC3)nc(Sc3ccc(NC(=O)C4CC4)cc3)n2)n[nH]1 [tozasertib]
Procedure, shortened: as §1

[18] = compound: Cc1cc(SCc2sc(-c3ccc(C(F)(F)F)cc3)nc2C)ccc1OCC(=O)O
Procedure, shortened: as §1

[19] = compound: Cc1ccc(-n2nc(C(C)(C)C)cc2NC(=O)Nc2ccc(OCCN3CCOCC3)c3ccccc23)cc1 [doramapimod]
Procedure, shortened: as §1

[20] = compound: Cc1ccc(C(=O)N(CCCN)[C@@H](c2nc3cc(Cl)ccc3c(=O)n2Cc2ccccc2)C(C)C)cc1 [ispinesib]
Procedure, shortened: as §1

Measured: log2 fold change

YWHAE (UniProt P62258)
inactive: [1] -0.023 | [2] -0.026 | [3] -0.013 | [4] -0.006 | [5] -0.073 | [6] 0.013 | [7] 0.005 | [8] 0.033 | [9] -0.023 | [10] 0.014 | [11] -0.013 | [12] 0.038 | [13] 0.013 | [14] -0.037 | [15] 0 | [16] 0.011 | [17] -0.021 | [18] -0.06 | [19] -0.014 | [20] -0.013

YARS (UniProt P54577)
inactive: [1] -0.022 | [2] -0.017 | [3] 0.058 | [4] -0.032 | [5] -0.037 | [6] 0.021 | [7] 0.023 | [8] -0.101 | [9] 0.005 | [10] -0.017 | [11] 0.023 | [12] -0.07 | [13] -0.001 | [14] 0.117 | [15] -0.007 | [16] -0.041 | [17] 0.032 | [18] 0.066 | [19] 0.041 | [20] -0.115

YAF2 isoform 5 (UniProt Q8IY57)
inactive: [1] 0.044 | [2] 0.035 | [3] -0.026 | [4] 0.089 | [5] -0.078 | [6] -0.031 | [7] 0.16 | [8] 0.14 | [9] 0.007 | [10] 0.092 | [11] -0.033 | [12] -0.132 | [13] -0.242 | [14] 0.059 | [15] -0.148 | [16] -0.147 | [17] 0.065 | [18] 0.044 | [19] 0.106 | [20] 0.162

XRCC4 (UniProt Q13426)
inactive: [1] 0.05 | [2] -0.016 | [3] -0.027 | [4] -0.017 | [5] -0.013 | [6] 0.063 | [7] 0 | [8] 0.045 | [9] 0.002 | [10] 0.032 | [11] 0.015 | [12] 0.047 | [13] 0.05 | [14] -0.043 | [15] 0.021 | [16] -0.08 | [17] 0.009 | [18] 0.007 | [19] -0.009 | [20] -0.005

XPO7 (UniProt E7ESC6)
inactive: [1] 0.034 | [2] -0.077 | [3] 0.009 | [4] -0.088 | [5] -0.067 | [6] -0.003 | [7] 0.004 | [8] 0.019 | [9] 0.014 | [10] 0.023 | [11] 0.042 | [12] 0.014 | [13] 0.059 | [14] -0.086 | [15] 0.025 | [16] -0.082 | [17] 0.026 | [18] -0.012 | [19] -0.049 | [20] 0.023

YIF1B (UniProt Q5BJH7)
inactive: [1] 0.081 | [2] -0.043 | [3] 0.044 | [4] 0.05 | [5] -0.112 | [6] -0.148 | [7] 0.005 | [8] 0.075 | [9] 0.036 | [10] -0.028 | [11] 0.029 | [12] 0.039 | [13] -0.006 | [14] 0.103 | [15] 0.144 | [16] 0.075 | [17] -0.036 | [18] 0.053 | [19] 0.018 | [20] -0.132

YME1L1 (UniProt Q96TA2)
inactive: [1] -0.079 | [2] 0.013 | [3] -0.065 | [4] 0.021 | [5] -0.047 | [6] -0.014 | [7] 0.008 | [8] 0.037 | [9] -0.022 | [10] -0.042 | [11] -0.021 | [12] -0.019 | [13] -0.008 | [14] 0.017 | [15] 0 | [16] 0.015 | [17] -0.015 | [18] -0.024 | [19] 0.003 | [20] -0.139

ZDHHC18 (UniProt Q9NUE0)
inactive: [1] 0.083 | [2] -0.023 | [3] -0.051 | [4] 0.018 | [5] -0.034 | [6] 0.05 | [7] -0.104 | [8] 0.067 | [9] 0.038 | [10] 0.158 | [11] 0.067 | [12] 0.016 | [13] -0.035 | [14] -0.152 | [15] 0.073 | [16] 0.195 | [17] -0.02 | [18] -0.103 | [19] -0.017 | [20] -0.26

YDJC (UniProt A8MPS7)
inactive: [1] 0.03 | [2] -0.055 | [3] 0.03 | [4] -0.049 | [5] 0 | [6] 0.017 | [7] -0.055 | [8] 0.083 | [9] -0.026 | [10] 0.077 | [11] 0.067 | [12] -0.074 | [13] -0.002 | [14] -0.067 | [15] 0.027 | [16] 0.046 | [17] -0.014 | [18] 0.094 | [19] -0.032 | [20] 0.083

Two consecutive records out of the list so far:
ZDHHC18 (UniProt Q9NUE0)
inactive: [1] 0.083 | [2] -0.023 | [3] -0.051 | [4] 0.018 | [5] -0.034 | [6] 0.05 | [7] -0.104 | [8] 0.067 | [9] 0.038 | [10] 0.158 | [11] 0.067 | [12] 0.016 | [13] -0.035 | [14] -0.152 | [15] 0.073 | [16] 0.195 | [17] -0.02 | [18] -0.103 | [19] -0.017 | [20] -0.26

YDJC (UniProt A8MPS7)
inactive: [1] 0.03 | [2] -0.055 | [3] 0.03 | [4] -0.049 | [5] 0 | [6] 0.017 | [7] -0.055 | [8] 0.083 | [9] -0.026 | [10] 0.077 | [11] 0.067 | [12] -0.074 | [13] -0.002 | [14] -0.067 | [15] 0.027 | [16] 0.046 | [17] -0.014 | [18] 0.094 | [19] -0.032 | [20] 0.083

Additional entries follow:

ZFYVE19 (UniProt Q96K21)
inactive: [1] -0.084 | [2] 0.069 | [3] -0.061 | [4] -0.009 | [5] -0.067 | [6] 0.007 | [7] 0.031 | [8] -0.001 | [9] 0.054 | [10] 0.039 | [11] -0.012 | [12] 0.02 | [13] 0.078 | [14] -0.046 | [15] 0.008 | [16] -0.019 | [17] -0.031 | [18] -0.023 | [19] -0.005 | [20] -0.023

YRDC (UniProt Q86U90)
inactive: [1] 0.031 | [2] -0.046 | [3] -0.016 | [4] -0.061 | [5] -0.009 | [6] -0.031 | [7] -0.002 | [8] 0.033 | [9] -0.033 | [10] 0.002 | [11] 0.031 | [12] -0.063 | [13] 0.055 | [14] -0.079 | [15] 0.069 | [16] -0.048 | [17] -0.006 | [18] -0.013 | [19] -0.008 | [20] -0.005

YARS2 (UniProt Q9Y2Z4)
inactive: [1] 0.054 | [2] 0.158 | [3] 0.058 | [4] -0.056 | [5] -0.111 | [6] 0.23 | [7] 0.091 | [8] 0.125 | [9] -0.338 | [10] -0.037 | [11] 0.215 | [12] 0.125 | [13] 0.201 | [14] -0.074 | [15] 0.122 | [16] 0.079 | [17] -0.076 | [18] 0.072 | [19] 0.092 | [20] 0.006

ZMPSTE24 (UniProt O75844)
inactive: [1] -0.039 | [2] -0.066 | [3] 0.156 | [4] -0.003 | [5] -0.031 | [6] -0.002 | [7] 0.042 | [8] 0.058 | [9] 0.056 | [10] 0.042 | [11] -0.018 | [12] 0.1 | [13] -0.033 | [14] -0.015 | [15] 0.044 | [16] -0.003 | [17] -0.004 | [18] -0.025 | [19] 0.008 | [20] 0.078

XPO4 (UniProt Q9C0E2)
inactive: [1] -0.005 | [2] -0.069 | [3] -0.012 | [4] -0.054 | [5] -0.027 | [6] -0.012 | [7] -0.03 | [8] 0.057 | [9] 0.012 | [10] 0.029 | [11] 0.034 | [12] 0.012 | [13] 0.06 | [14] -0.059 | [15] 0.036 | [16] -0.116 | [17] 0.053 | [18] 0 | [19] -0.036 | [20] -0.009

ZCCHC8 (UniProt Q6NZY4)
inactive: [1] -0.023 | [2] -0.024 | [3] 0.025 | [4] 0.024 | [5] -0.096 | [6] -0.013 | [7] -0.045 | [8] -0.031 | [9] 0.065 | [10] 0.028 | [11] 0.017 | [12] -0.004 | [13] -0.007 | [14] -0.031 | [15] 0.023 | [16] 0.048 | [17] 0.002 | [18] 0.029 | [19] -0.014 | [20] 0.022

YEATS4 (UniProt O95619)
inactive: [1] -0.073 | [2] 0.022 | [3] -0.019 | [4] -0.025 | [5] -0.032 | [6] 0.158 | [7] -0.028 | [8] -0.05 | [9] -0.084 | [10] -0.005 | [11] -0.044 | [12] 0.001 | [13] 0.009 | [14] -0.013 | [15] -0.011 | [16] -0.031 | [17] -0.016 | [18] -0.058 | [19] 0.041 | [20] 0.085
